{"sequences": {"note": "Chains of the proteins cited; added tags and fusions are not shown.", "UniProt Q15672": "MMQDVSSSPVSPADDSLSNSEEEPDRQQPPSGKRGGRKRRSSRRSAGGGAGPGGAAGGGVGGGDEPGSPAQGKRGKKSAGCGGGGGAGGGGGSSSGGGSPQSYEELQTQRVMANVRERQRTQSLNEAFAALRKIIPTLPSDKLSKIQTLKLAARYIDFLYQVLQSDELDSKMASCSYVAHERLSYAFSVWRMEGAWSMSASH", "UniProt P10415": "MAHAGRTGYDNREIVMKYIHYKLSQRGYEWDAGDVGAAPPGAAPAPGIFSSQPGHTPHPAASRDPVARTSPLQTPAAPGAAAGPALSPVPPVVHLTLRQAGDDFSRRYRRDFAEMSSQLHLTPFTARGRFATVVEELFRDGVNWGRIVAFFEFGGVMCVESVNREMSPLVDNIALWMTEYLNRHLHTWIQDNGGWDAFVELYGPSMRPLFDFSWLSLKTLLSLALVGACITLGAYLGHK"}, "source": "paper PMC5352356", "key": {"[1]": {"biological_target": "Twist1 (human (endogenous in Tca8113 and Tb3.1)) (UniProt Q15672)", "experiment": "co-IP; lysates (1000 ug protein) of Tca8113 and Tb3.1 cells, precleared with protein A/G beads, 1 ug Twist1 (mouse) or Bcl-2 (rabbit) antibody, IgG as negative control, western blot; cells under normal conditions or CoCl2 hypoxia (Tca8113 12 h, Tb3.1 24 h); binding enhanced after hypoxia"}, "[2]": {"biological_target": "B-cell lymphoma-2 (Bcl-2) (human (endogenous in Tca8113 and Tb3.1)) (UniProt P10415)", "experiment": "co-IP; lysates (1000 ug protein) of Tca8113 and Tb3.1 cells, precleared with protein A/G beads, 1 ug Twist1 (mouse) or Bcl-2 (rabbit) antibody, IgG as negative control, western blot; cells under normal conditions or CoCl2 hypoxia (Tca8113 12 h, Tb3.1 24 h); binding enhanced after hypoxia"}}, "note": "Results are given in words; binding and its absence hold for the method and conditions named. In cells and extracts the contact can be indirect. Some results given as binding are weak or reduced against the parent protein; the word gives no strength.", "data": [{"substance": "B-cell lymphoma-2 (Bcl-2) (from UniProt P10415 1-239)", "values": [{"measurement": "binding", "setting": "[1]", "result": "binds"}]}, {"substance": "Twist1 (from UniProt Q15672 1-202)", "values": [{"measurement": "binding", "setting": "[2]", "result": "binds"}]}]}
